The values that follow come from paper PMC8053111, “MKRN3-mediated ubiquitination of Poly(A)-binding proteins modulates the stability and translation of GNRH1 mRNA in mammalian puberty” (Nucleic Acids Research, 2021).

Sequences of proteins named here, by UniProt entry; tags and fusion partners are left off.
UniProt P11940: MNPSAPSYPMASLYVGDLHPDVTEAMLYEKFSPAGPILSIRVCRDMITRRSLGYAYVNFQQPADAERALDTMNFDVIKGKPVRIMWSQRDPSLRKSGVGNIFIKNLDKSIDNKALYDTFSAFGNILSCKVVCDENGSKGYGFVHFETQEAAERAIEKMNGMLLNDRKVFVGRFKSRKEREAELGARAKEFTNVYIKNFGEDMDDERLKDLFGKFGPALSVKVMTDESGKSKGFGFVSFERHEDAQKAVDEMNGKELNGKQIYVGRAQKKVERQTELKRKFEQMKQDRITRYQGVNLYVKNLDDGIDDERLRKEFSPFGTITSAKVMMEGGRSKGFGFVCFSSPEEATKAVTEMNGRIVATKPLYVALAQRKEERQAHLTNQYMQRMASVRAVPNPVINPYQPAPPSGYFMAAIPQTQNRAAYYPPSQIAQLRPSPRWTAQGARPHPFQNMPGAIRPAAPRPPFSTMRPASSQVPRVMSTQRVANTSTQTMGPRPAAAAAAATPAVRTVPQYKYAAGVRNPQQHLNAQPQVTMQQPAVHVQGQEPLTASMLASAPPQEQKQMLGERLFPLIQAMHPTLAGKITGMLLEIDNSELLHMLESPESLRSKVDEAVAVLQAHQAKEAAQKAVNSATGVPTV
UniProt Q9H361: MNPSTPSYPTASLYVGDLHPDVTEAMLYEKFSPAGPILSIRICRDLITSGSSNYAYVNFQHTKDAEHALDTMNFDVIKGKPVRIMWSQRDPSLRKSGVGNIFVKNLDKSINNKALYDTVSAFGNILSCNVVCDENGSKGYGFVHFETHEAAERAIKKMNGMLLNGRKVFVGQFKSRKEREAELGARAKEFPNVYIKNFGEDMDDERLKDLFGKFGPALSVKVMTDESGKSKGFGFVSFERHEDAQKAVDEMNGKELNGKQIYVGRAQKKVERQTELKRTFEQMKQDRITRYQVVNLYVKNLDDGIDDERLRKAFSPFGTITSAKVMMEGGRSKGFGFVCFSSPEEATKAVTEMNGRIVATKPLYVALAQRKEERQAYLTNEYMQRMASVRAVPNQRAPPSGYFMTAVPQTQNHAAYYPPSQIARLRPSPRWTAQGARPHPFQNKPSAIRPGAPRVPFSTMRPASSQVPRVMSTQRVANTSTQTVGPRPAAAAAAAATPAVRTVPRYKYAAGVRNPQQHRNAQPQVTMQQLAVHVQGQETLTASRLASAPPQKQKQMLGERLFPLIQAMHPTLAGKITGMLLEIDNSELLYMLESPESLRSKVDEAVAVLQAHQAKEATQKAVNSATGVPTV

Results are given in words; binding and its absence hold for the method and conditions named. In cells and extracts the contact can be indirect. A yes stands for co-enrichment or nearness to the bait. Other partners may have been found. Tags and fused reporters may be left off the sequences shown.

In the assay the target is T1, 3xFlag-tagged MKRN3 (human) (UniProt Q13064).
T1 sequence: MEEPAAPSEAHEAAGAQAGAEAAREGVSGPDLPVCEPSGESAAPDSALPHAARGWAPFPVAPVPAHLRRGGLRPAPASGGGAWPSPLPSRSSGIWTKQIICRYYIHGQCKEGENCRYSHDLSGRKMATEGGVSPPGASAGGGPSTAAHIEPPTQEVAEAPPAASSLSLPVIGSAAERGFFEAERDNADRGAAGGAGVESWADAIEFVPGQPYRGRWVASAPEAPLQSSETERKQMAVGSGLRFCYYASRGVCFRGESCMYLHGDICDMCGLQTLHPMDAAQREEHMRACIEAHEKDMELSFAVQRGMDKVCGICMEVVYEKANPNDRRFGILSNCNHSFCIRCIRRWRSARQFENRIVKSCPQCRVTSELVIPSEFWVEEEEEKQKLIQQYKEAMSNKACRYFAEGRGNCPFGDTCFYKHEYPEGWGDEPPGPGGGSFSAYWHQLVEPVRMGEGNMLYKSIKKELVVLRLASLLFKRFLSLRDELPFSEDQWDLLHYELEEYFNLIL
The experiment in a line: affinity purification with mass spectrometry; HEK293T transfected with MKRN3-3xFlag or empty vector, 48 h; lysed in Co-IP buffer (50 mM Tris-HCl, 150 mM NaCl, 5 mM EDTA, 1% NP-40, pH 7.6); anti-Flag affinity gels overnight at 4°C with or without RNaseA (50 μg/ml); label-free quantitation, three samples each group.

In the case of “PABPC1 (endogenous, HEK293T) (from UniProt P11940 1-636)”, the binding result is listed as “binds”.

Take “PABPC3 (endogenous, HEK293T) (from UniProt Q9H361 1-631)”: the binding result was “binds”.
